In the assay the target is His-tagged GRP78 (glucose-regulated protein 78) (UniProt P11021). In words: co-IP; RAW264.7 cells treated with 40 nM purified His-GRP78 for different times, lysed (Western and IP buffer); 800 ug lysate, anti-His antibody or control IgG overnight, Protein A/G PLUS-Agarose 2 h at 4 C; Western blot of the endogenous partner; only the target purified. (In western blotting, separated proteins are transferred to a membrane and probed.)

Amino acid sequences for entries named in this document (tags omitted). Residues count along the entry.
UniProt P11021, residues 19-654: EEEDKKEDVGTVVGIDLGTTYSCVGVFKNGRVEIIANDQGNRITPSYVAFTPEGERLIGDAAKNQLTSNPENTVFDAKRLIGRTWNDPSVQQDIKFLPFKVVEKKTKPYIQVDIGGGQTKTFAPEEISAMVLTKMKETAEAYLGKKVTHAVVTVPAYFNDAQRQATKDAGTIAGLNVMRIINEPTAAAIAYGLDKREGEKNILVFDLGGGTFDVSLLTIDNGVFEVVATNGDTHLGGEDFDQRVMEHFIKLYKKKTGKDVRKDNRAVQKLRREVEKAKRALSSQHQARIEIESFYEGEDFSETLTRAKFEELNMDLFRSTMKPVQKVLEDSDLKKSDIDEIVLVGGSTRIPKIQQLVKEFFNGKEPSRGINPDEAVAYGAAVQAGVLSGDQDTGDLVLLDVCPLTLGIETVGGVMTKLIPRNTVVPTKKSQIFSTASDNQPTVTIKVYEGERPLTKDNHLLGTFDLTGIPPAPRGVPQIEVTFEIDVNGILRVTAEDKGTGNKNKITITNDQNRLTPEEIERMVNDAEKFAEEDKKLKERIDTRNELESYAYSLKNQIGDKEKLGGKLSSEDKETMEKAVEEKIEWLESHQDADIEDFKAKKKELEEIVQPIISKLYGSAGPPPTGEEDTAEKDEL

These are yes or no findings as the source states them, for the method shown. In cells and extracts the contact can be indirect. Some binding calls cover weakened binding; strength is not graded here.

B1: Caveolin-1 (protein, UniProt P49817 1-178)
chain: MSGGKYVDSEGHLYTVPIREQGNIYKPNNKAMADEVTEKQVYDAHTKEIDLVNRDPKHLNDDVVKIDFEDVIAEPEGTHSFDGIWKASFTTFTVTKYWFYRLLSTIFGIPMALIWGIYFAILSFLHIWAVVPCIKSFLIEIQCISRVYSIYVHTFCDPLFEAIGKIFSNIRISTQKEI
Consider B1, for which the binding result is reported as “binds”.

B2: LAMP1 (protein, UniProt P11438 25-406)
chain: LFEVKNNGTTCIMASFSASFLTTYETANGSQIVNISLPASAEVLKNGSSCGKENVSDPSLTITFGRGYLLTLNFTKNTTRYSVQHMYFTYNLSDTEHFPNAISKEIYTMDSTTDIKADINKAYRCVSDIRVYMKNVTVVLRDATIQAYLSSGNFSKEETHCTQDGPSPTTGPPSPSPPLVPTNPTVSKYNVTGNNGTCLLASMALQLNITYLKKDNKTVTRAFNISPNDTSSGSCGINLVTLKVENKNRALELQFGMNASSSLFFLQGVRLNMTLPDALVPTFSISNHSLKALQATVGNSYKCNTEEHIFVSKMLSLNVFSVQVQAFKVDSDRFGSVEECVQDGNNMLIPIAVGGALAGLVLIVLIAYLIGRKRSHAGYQTI
For the molecule B2, the binding entry is “no binding”.

These data come from publication PMC5884641.
